We go through 1 compound from US9421204B2, “Oligomer modified diaromatic substituted compounds” (priority 2010, dated 2016).

A short description of the data set: in vitro. The conditions noted are these: human, Caco-2, Papp. How it is done: The objective of this study was to determine the bidirectional Caco-2 permeability of test compounds. Caco-2 monolayers were grown to confluence on collagen-coated, microporous, polycarbonate membranes in 12-well Costar Transwell® plates. Details of the plates and their certification are shown below. The permeability assay buffer for the donor chambers was Hanks Balanced Salt Solution containing 10 mM HEPES and 15 mM glucose (HBSSg) at a pH of 7.4. The buffer in the receiver chambers also contained 1% bovine serum albumin (BSA). The dosing solution concentrations were 10 μM in the assay buffer. Cell monolayers were dosed on the apical side (A to-B) or basolateral side (B-to-A) and incubated at 37° C. with 5% CO2 in a humidified incubator. After 2 hours, aliquots were taken from the receiver and donor chambers. Each determination was performed in duplicate. The lucifer yellow flux was also measured for each monolayer to ensure no damage was inflicted to the cell monolayers during the flux period. All samples were assayed by LC/MS/MS using electrospray ionization.

`CC(C)NCC(O)COc1ccc(CC(N)=O)cc1` (stereo not shown) [Atenolol]: the Papp (as a rule, the rate of passage across a membrane or cell layer, normalised by area and donor concentration) worked out at 0.26 ×10⁻⁶ cm/s.
